From patent publication US6146842A, “High-throughput screening assays utilizing metal-chelate capture” (Mitotix, Inc., priority 1999, dated 2000)

Tested on: histidine tagged peptide - nickel FlashPlate binding
Assay: Tolerance of nickel FlashPlates to common assay reagents (binding of histidine tagged peptide to nickel FlashPlate)
[1] = maximal concentration which did not interfere with binding of the histidine tagged peptide to the FlashPlate

Compound | Maximum concentration tolerated in assay [1] [%] | final assay concentration that did not interfere with histidine-nickel interaction and was suitable for assay of transferase activity (final assay concentration in the reaction phase) [%] | Maximum concentration tolerated in assay (maximal concentration of DTT which did not interfere with binding to the FlashPlate) [mM]
Tween-20 | 1 |  | 
C[S+](C)[O-] [DMSO, dimethylsulfoxide] | 10 | 10 | 
Triton-X-100 | 1 |  | 
O[C@H](CS)[C@H](O)CS (racemic) [DTT, dithiothreitol] |  |  | 1
NP 40 | 1 |  | 
CCO [EtOH] | < 25 |  | 
CO [MeOH] | < 25 |  | 
